Results as given in patent publication US20120213794A1.
Changes are numbered by the printed parent chain. No constants are given. Whether binding was seen depends on the method and setting. Some binding calls cover weakened binding; strength is not graded here.

Protein sequences, listed by entry. Tags and fused reporters are not part of them. Lines headed by an entry give the natural chain unless they say otherwise; changes in a name come on top. Residues count along the entry.
UniProt Q8NBP7: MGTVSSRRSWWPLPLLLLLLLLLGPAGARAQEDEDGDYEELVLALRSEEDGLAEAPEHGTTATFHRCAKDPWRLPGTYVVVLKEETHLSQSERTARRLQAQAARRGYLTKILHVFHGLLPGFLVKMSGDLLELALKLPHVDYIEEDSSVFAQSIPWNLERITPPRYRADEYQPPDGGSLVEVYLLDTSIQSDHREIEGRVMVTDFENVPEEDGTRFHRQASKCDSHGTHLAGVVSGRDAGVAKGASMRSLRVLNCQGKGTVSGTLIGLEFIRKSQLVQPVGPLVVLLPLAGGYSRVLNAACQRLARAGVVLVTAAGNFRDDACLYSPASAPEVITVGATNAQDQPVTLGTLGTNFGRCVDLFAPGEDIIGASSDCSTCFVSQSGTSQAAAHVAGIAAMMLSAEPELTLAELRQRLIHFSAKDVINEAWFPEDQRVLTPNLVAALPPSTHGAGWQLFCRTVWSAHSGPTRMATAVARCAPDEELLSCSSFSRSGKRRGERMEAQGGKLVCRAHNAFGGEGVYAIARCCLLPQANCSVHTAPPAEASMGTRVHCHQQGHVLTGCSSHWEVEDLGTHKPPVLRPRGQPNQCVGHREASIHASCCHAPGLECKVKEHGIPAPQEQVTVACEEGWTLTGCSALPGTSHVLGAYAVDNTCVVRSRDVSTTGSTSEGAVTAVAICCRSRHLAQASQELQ
UniProt Q80W65, residues 35-694: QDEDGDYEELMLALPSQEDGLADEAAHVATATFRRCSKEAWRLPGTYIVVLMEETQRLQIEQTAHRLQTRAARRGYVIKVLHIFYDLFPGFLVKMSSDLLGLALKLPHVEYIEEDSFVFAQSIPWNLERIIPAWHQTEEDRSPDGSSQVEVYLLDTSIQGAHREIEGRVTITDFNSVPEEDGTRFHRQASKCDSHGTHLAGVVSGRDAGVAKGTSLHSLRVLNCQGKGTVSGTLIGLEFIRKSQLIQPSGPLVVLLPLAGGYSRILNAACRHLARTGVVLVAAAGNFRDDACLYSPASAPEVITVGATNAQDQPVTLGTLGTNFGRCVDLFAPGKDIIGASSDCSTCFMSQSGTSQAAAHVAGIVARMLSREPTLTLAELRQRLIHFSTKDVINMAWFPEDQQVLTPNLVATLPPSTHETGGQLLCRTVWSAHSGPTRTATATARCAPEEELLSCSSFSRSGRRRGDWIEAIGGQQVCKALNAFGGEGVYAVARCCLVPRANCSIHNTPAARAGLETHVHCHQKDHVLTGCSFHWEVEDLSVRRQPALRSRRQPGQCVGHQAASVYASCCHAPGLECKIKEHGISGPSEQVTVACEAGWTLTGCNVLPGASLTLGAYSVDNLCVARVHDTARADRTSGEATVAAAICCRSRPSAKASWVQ

Key:
[1] = biological target: human PCSK9 (proprotein convertase subtilisin-kexin type 9), wild type (human) (UniProt Q8NBP7); experiment: hydrogen-deuterium exchange MS; PCSK9 bound to an antibody affinity column
[2] = biological target: human PCSK9 (proprotein convertase subtilisin-kexin type 9), wild type (human) (UniProt Q8NBP7); experiment: inferred by the filing from the cellular LDL-uptake assay
murine PCSK9 (mouse) = murine PCSK9 (mouse) (UniProt Q80W65); experiment: as above
[3] = biological target: human PCSK9 (proprotein convertase subtilisin-kexin type 9), wild type (human) (UniProt Q8NBP7); experiment: Biacore; Fab pre-incubated with human PCSK9, injected over LDLR and EGF_AB
human PCSK9 (human) = human PCSK9 (human) (UniProt Q8NBP7); experiment: Biacore epitope binning on immobilized human PCSK9

B1: AX213 IgG2 (antibody)
heavy: EVQLLESGGGLVQPGGSLRLSCKASGYTFSRYGINWVRQAPGKGLEWIGRIDPGNGGTRYNEKFKGKATISRDNSKNTLYLQMNSLRAEDTAVYYCARANDGYSFDYWGQGTLVTVSSASTKGPSVFPLAPCSRSTSESTAALGCLVKDYFPEPVTVSWNSGALTSGVHTFPAVLQSSGLYSLSSVVTVPSSNFGTQTYTCNVDHKPSNTKVDKTVERKCCVECPPCPAPPVAGPSVFLFPPKPKDTLMISRTPEVTCVVVDVSHEDPEVQFNWYVDGVEVHNAKTKPREEQFNSTFRVVSVLTVVHQDWLNGKEYKCKVSNKGLPAPIEKTISKTKGQPREPQVYTLPPSREEMTKNQVSLTCLVKGFYPSDIAVEWESNGQPENNYKTTPPMLDSDGSFFLYSKLTVDKSRWQQGNVFSCSVMHEALHNHYTQKSLSLSPGK
light: EIVLTQSPATLSLSPGERATITCRASQYVGSYLNWYQQKPGQAPRLLIYDASNRATGIPARFSGSGSGTDFTLTISSLEPEDFAVYYCQVWDSSPPVVFGGGTKVEIKRTVAAPSVFIFPPSDEQLKSGTASVVCLLNNFYPREAKVQWKVDNALQSGNSQESVTEQDSKDSTYSLSSTLTLSKADYEKHKVYACEVTHQGLSSPVTKSFNRGEC
Question: How did the binding [1] turn out when B1 was run?
Answer: Its binding is “binds”.

Question: What about the binding [2] of the same binder?
Answer: Its binding is “binds”.

B2: AX132 IgG2 (antibody)
heavy: B1 heavy with R31S, I34M, N35Y, R50W, N55S, R59K, A99E, N100R, D101Y, S104Y
VL: EIVLTQSPATLSLSPGERATITCRASQYVGSYLNWYQQKPGQAPRLLIYDASNRATGIPARFSGSGSGTDFTLTISSLEPEDFAVYYCQVWDSSPPVVFGGGTKVEIK
Question: Which binding (murine PCSK9 (mouse)) does the source give for B2 here?
Answer: The binding was “binds”.

B3: AX114 Fab (Fab, V domains shown)
VH: EVQLLESGGGLVQPGGSLRLSCKASGYTFSSYGMYWVRQAPGKGLEWIGWIDPGSGGTKYNEKFKGKATISRDNSKNTLYLQMNSLRAEDTAVYYCARERYGYYFDYWGQGTLVTVSS
VL: B2 VL with S31T, V98A
Question: With B3 as the binder, how does the binding [3] read?
Answer: Its binding is “binds”.

B4: AX114 (antibody, V domains shown)
VH: B3 VH
VL: B2 VL with S31T, V98A
Question: How did the binding (human PCSK9 (human)) turn out when B4 was run?
Answer: Its binding is “binds”.

B5: AX139 (antibody, V domains shown)
VH: B3 VH
VL: B2 VL with S52A
Question: For B5, which binding (human PCSK9 (human)) is on record?
Answer: The binding was “binds”.

B6: AX212 (antibody, V domains shown)
VH: QVQLLESGGGLVQPGGSLRLSCKASGYTFSSYSFSWVRQAPGKGLEWIGYIDPGSGGTKYNQKFQGKATISRDNSKNTLYLQMNSLRAEDTAVYYCARQRVGYSLDYWGQGTLVTVSS
VL: B2 VL
Question: Which binding (human PCSK9 (human)) does the source give for B6 here?
Answer: The binding was “binds”.

B7: AX213 (antibody, V domains shown)
VH: B3 VH with S31R, M34I, Y35N, W50R, S55N, K59R, E99A, R100N, Y101D, Y104S
VL: B2 VL
Question: With B7 as the binder, how does the binding (human PCSK9 (human)) read?
Answer: Its binding is “binds”.

B8: AX210 (antibody, V domains shown)
VH: B6 VH with F34I, S35Y, Y50W, S55N, K59R, G66S, Q99A
VL: B2 VL
Question: For B8, which binding (human PCSK9 (human)) is on record?
Answer: Its binding is “binds”.

B9: AX211 (antibody, V domains shown)
VH: B6 VH with S31R, Y32Q, S33G, S35T, Y50W, S55N, K59R, Q62E, Q65K, Q99Y
VL: B2 VL
Question: Which binding (human PCSK9 (human)) does the source give for B9 here?
Answer: Its binding is “binds”.

B10: AX137 (antibody, V domains shown)
VH: B3 VH
VL: B2 VL with V29I, V90A
Question: Which binding (human PCSK9 (human)) does the source give for B10 here?
Answer: The binding was “binds”.
